# Measured values taken from PubChem BioAssay AID288 (DTP/NCI, 2004).
# The list shows only some results of the screen, not a fair sample: it is rich in T/C values a quarter to a half above the control, in often repeated tests (any T/C) and in doses without a T/C. Further doses and runs are listed elsewhere. T/C gives the treated animals as a percentage of the vehicle group. Some doses have a count of surviving animals in place of a T/C: the source files T/C as zero there, which appears to mark a toxic dose or a test without result, not a measured value. Some doses without a T/C left all or most animals alive at the check, yet need not have been tolerated: survival well below the control is almost never listed, so the zero probably covers shortened survival too. Survivors were counted at the toxicity check, usually on the fifth day, unless a day is given; later deaths do not show. Schedule codes are those of the source, read here as Q, the interval in days (D) or hours (H), X, the number of doses. Some entries hold several experiments; the values are given in rising order. For survival time, this PubChem deposit counts one and a half times the control or more as active, and values a quarter to a half above the control carry no call in these data; other NCI protocols may use other cut-offs. Some T/C values carry the count of animals alive at the toxicity check (mostly the fifth day); without a count, all were alive then.
# Test system: BDF1 mice, M5076 sarcoma s.c., survival/tumor T/C
# Experiment: NCI In Vivo Anticancer Drug Screen. Data for tumor model Sarcoma M5076 (subcutaneous) in B6D2F1 (BDF1) mice
# Procedure: The antitumor activity of compounds was measured in mice bearing transplantable tumors. Survival or tumor size were measured and the results are expressed as the measurement made in the treated group (T) divided by the measurement made in the vehicle treated control group (C). The tumor model used in this assay is Sarcoma M5076 (subcutaneous) in B6D2F1 (BDF1) mice
structure (smiles),measurement,setting,value
CC1(CO)C(O)CCC2(C)C1CCC1CC3CC12CCC3(O)CO (configuration not stated),T/C,"T/C endpoint: median survival time, dose: 23.3 mg/kg/injection, schedule: Q01DX017 (ip), vehicle: Klucel (hydroxypropylcellulose) (HPC), higher T/C = longer survival",129 % of control
same,T/C,"T/C endpoint: median survival time, dose: 23.3 mg/kg/injection, schedule: Q01DX017 (sc), vehicle: Klucel (hydroxypropylcellulose) (HPC), higher T/C = longer survival",149 % of control
same,T/C,"T/C endpoint: median survival time, dose: 38.9 mg/kg/injection, schedule: Q01DX017 (ip), vehicle: Klucel (hydroxypropylcellulose) (HPC), higher T/C = longer survival",135 % of control
same,T/C,"T/C endpoint: median survival time, dose: 64.8 mg/kg/injection, schedule: Q01DX017 (sc), vehicle: Klucel (hydroxypropylcellulose) (HPC), higher T/C = longer survival",131 % of control
same,survivor count,"T/C endpoint: median survival time, dose: 180.0 mg/kg/injection, schedule: Q01DX017 (ip), vehicle: Klucel (hydroxypropylcellulose) (HPC), higher T/C = longer survival",3 of 10 on day 9
same,T/C,"T/C endpoint: median survival time, dose: 180.0 mg/kg/injection, schedule: Q01DX017 (oral), vehicle: Klucel (hydroxypropylcellulose) (HPC), higher T/C = longer survival",125 % of control
same,survivor count,"T/C endpoint: median survival time, dose: 180.0 mg/kg/injection, schedule: Q01DX017 (sc), vehicle: Klucel (hydroxypropylcellulose) (HPC), higher T/C = longer survival",4 of 10 on day 9 and 8 of 10 on day 9
same,T/C,"T/C endpoint: median survival time, dose: 232.0 mg/kg/injection, schedule: Q01DX017 (oral), vehicle: Klucel (hydroxypropylcellulose) (HPC), higher T/C = longer survival",145 % of control
same,survivor count,"T/C endpoint: median survival time, dose: 300.0 mg/kg/injection, schedule: Q01DX017 (oral), vehicle: Klucel (hydroxypropylcellulose) (HPC), higher T/C = longer survival",10 of 10 on day 9
same,survivor count,"T/C endpoint: median survival time, dose: 300.0 mg/kg/injection, schedule: Q01DX017 (sc), vehicle: Klucel (hydroxypropylcellulose) (HPC), higher T/C = longer survival",4 of 10 on day 9
same,survivor count,"T/C endpoint: median survival time, dose: 500.0 mg/kg/injection, schedule: Q01DX017 (oral), vehicle: Klucel (hydroxypropylcellulose) (HPC), higher T/C = longer survival",8 of 10 on day 9
same,survivor count,"T/C endpoint: median survival time, dose: 1000.0 mg/kg/injection, schedule: Q04DX005 (ip), vehicle: Klucel (hydroxypropylcellulose) (HPC), higher T/C = longer survival",10 of 10
COC12C(COC(N)=O)C3=C(C(=O)C(C)=C(N)C3=O)N1CC1C2N1C (configuration not stated),survivor count,"T/C endpoint: median tumor weight (est.), dose: 12.0 mg/kg/injection, schedule: Q02DX011 (ip), vehicle: saline, higher T/C = larger tumour",2 of 10 on day 22
N[C@@H](Cc1ccc(N(CCCl)CCCl)cc1)C(=O)O,T/C,"T/C endpoint: median survival time, dose: 1.5 mg/kg/injection, schedule: Q02DX033 (ip), vehicle: saline, higher T/C = longer survival",140 % of control
same,T/C,"T/C endpoint: median survival time, dose: 5.4 mg/kg/injection, schedule: Q01DX001 (ip), vehicle: saline, evaluated on day 17, higher T/C = longer survival","123, 137, 162 % of control"
same,T/C,"T/C endpoint: median survival time, dose: 5.4 mg/kg/injection, schedule: Q01DX001 (ip), vehicle: saline, evaluated on day 54, higher T/C = longer survival",138 % of control
same,T/C,"T/C endpoint: median survival time, dose: 5.4 mg/kg/injection, schedule: Q01DX001 (ip), vehicle: saline, evaluated on day 61, higher T/C = longer survival",121 % of control
same,T/C,"T/C endpoint: median survival time, dose: 5.4 mg/kg/injection, schedule: Q01DX001 (ip), vehicle: saline, evaluated on day 68, higher T/C = longer survival",128 % of control
same,T/C,"T/C endpoint: median survival time, dose: 5.4 mg/kg/injection, schedule: Q01DX001 (ip), vehicle: saline, evaluated on day 75, higher T/C = longer survival",163 % of control
same,T/C,"T/C endpoint: median survival time, dose: 6.0 mg/kg/injection, schedule: Q04DX006 (ip), vehicle: saline, higher T/C = longer survival",138 % of control
same,T/C,"T/C endpoint: median survival time, dose: 9.0 mg/kg/injection, schedule: Q01DX001 (ip), vehicle: saline, evaluated on day 17, higher T/C = longer survival","144, 147, 162 % of control"
same,T/C,"T/C endpoint: median survival time, dose: 9.0 mg/kg/injection, schedule: Q01DX001 (ip), vehicle: saline, evaluated on day 54, higher T/C = longer survival",149 % of control
same,T/C,"T/C endpoint: median survival time, dose: 9.0 mg/kg/injection, schedule: Q01DX001 (ip), vehicle: saline, evaluated on day 61, higher T/C = longer survival",136 % of control [9 of 10 alive on day 61]
same,T/C,"T/C endpoint: median survival time, dose: 9.0 mg/kg/injection, schedule: Q01DX001 (ip), vehicle: saline, evaluated on day 68, higher T/C = longer survival",159 % of control
same,T/C,"T/C endpoint: median survival time, dose: 9.0 mg/kg/injection, schedule: Q01DX001 (ip), vehicle: saline, evaluated on day 75, higher T/C = longer survival",161 % of control
same,T/C,"T/C endpoint: median survival time, dose: 15.0 mg/kg/injection, schedule: Q01DX001 (ip), vehicle: saline, evaluated on day 17, higher T/C = longer survival","133, 162, 197 % of control"
same,T/C,"T/C endpoint: median survival time, dose: 15.0 mg/kg/injection, schedule: Q01DX001 (ip), vehicle: saline, evaluated on day 54, higher T/C = longer survival",164 % of control
same,T/C,"T/C endpoint: median survival time, dose: 15.0 mg/kg/injection, schedule: Q01DX001 (ip), vehicle: saline, evaluated on day 61, higher T/C = longer survival",135 % of control
same,T/C,"T/C endpoint: median survival time, dose: 15.0 mg/kg/injection, schedule: Q01DX001 (ip), vehicle: saline, evaluated on day 68, higher T/C = longer survival",157 % of control
same,T/C,"T/C endpoint: median survival time, dose: 15.0 mg/kg/injection, schedule: Q01DX001 (ip), vehicle: saline, evaluated on day 75, higher T/C = longer survival",192 % of control
same,T/C,"T/C endpoint: median survival time, dose: 25.0 mg/kg/injection, schedule: Q01DX001 (ip), vehicle: saline, evaluated on day 17, higher T/C = longer survival","67 [6 of 7 alive], 138, 172 % of control"
same,T/C,"T/C endpoint: median survival time, dose: 25.0 mg/kg/injection, schedule: Q01DX001 (ip), vehicle: saline, evaluated on day 61, higher T/C = longer survival",138 % of control
same,survivor count,"T/C endpoint: median survival time, dose: 25.0 mg/kg/injection, schedule: Q01DX001 (ip), vehicle: saline, higher T/C = longer survival","0 of 8 on day 54, 5 of 10 on day 68, 6 of 10 on day 75"
O=NN(CCCl)C(=O)NC1CCC(=O)NC1=O (configuration not stated),survivor count,"T/C endpoint: median survival time, dose: 16.0 mg/kg/injection, schedule: Q01DX009 (ip), vehicle: saline + alcohol, higher T/C = longer survival",10 of 10
same,survivor count,"T/C endpoint: median tumor weight (est.), dose: 16.0 mg/kg/injection, schedule: Q01DX009 (ip), vehicle: saline + alcohol, higher T/C = larger tumour",0 of 10 on day 20
NC(C/[N+]([O-])=N/O)C(=O)O (configuration not stated),T/C,"T/C endpoint: median survival time, dose: 19.8 mg/kg/injection, schedule: Q01DX010 (ip), vehicle: alkali diluted with saline, higher T/C = longer survival",129 % of control
same,survivor count,"T/C endpoint: median survival time, dose: 79.0 mg/kg/injection, schedule: Q04DX005 (ip), vehicle: alkali diluted with saline, higher T/C = longer survival",6 of 10 on day 77
same,survivor count,"T/C endpoint: median survival time, dose: 100.0 mg/kg/injection, schedule: Q01DX010 (ip), vehicle: alkali diluted with saline, higher T/C = longer survival",3 of 10 on day 77 and 10 of 10
same,T/C,"T/C endpoint: median survival time, dose: 119.0 mg/kg/injection, schedule: Q04DX005 (ip), vehicle: alkali diluted with saline, higher T/C = longer survival",133 % of control
same,T/C,"T/C endpoint: median survival time, dose: 178.0 mg/kg/injection, schedule: Q04DX005 (ip), vehicle: alkali diluted with saline, evaluated on day 75, higher T/C = longer survival",133 % of control
same,T/C,"T/C endpoint: median survival time, dose: 178.0 mg/kg/injection, schedule: Q04DX005 (ip), vehicle: alkali diluted with saline, evaluated on day 77, higher T/C = longer survival",132 % of control [9 of 10 alive on day 77]
same,survivor count,"T/C endpoint: median survival time, dose: 400.0 mg/kg/injection, schedule: Q04DX005 (ip), vehicle: alkali diluted with saline, higher T/C = longer survival",5 of 10 on day 77
same,survivor count,"T/C endpoint: median survival time, dose: 600.0 mg/kg/injection, schedule: Q04DX005 (ip), vehicle: alkali diluted with saline, higher T/C = longer survival",0 of 10 on day 77 and 10 of 10
same,survivor count,"T/C endpoint: median tumor weight (est.), dose: 200.0 mg/kg/injection, schedule: Q02DX011 (ip), vehicle: alkali diluted with saline, higher T/C = larger tumour",1 of 10 on day 22
same,survivor count,"T/C endpoint: median tumor weight (est.), dose: 400.0 mg/kg/injection, schedule: Q02DX011 (ip), vehicle: alkali diluted with saline, higher T/C = larger tumour",0 of 10 on day 22
OC(CBr)C(O)C(O)C(O)CBr (configuration not stated),T/C,"T/C endpoint: median survival time, dose: 240.0 mg/kg/injection, schedule: Q04DX009 (ip), vehicle: saline with Tween-80, higher T/C = longer survival",137 % of control
O=C1N[C@H]2[C@H](O)[C@H](O)[C@@H](O)[C@H](O)[C@@H]2c2cc3c(c(O)c21)OCO3,T/C,"T/C endpoint: median survival time, dose: 3.0 mg/kg/injection, schedule: Q01DX009 (ip), vehicle: saline + Tween-80 + alcohol, higher T/C = longer survival",125 % of control [9 of 10 alive]
same,survivor count,"T/C endpoint: median survival time, dose: 6.0 mg/kg/injection, schedule: Q01DX009 (ip), vehicle: saline + Tween-80 + alcohol, higher T/C = longer survival",5 of 10
same,T/C,"T/C endpoint: median survival time, dose: 6.0 mg/kg/injection, schedule: Q01DX009 (ip), vehicle: saline + alcohol, higher T/C = longer survival",126 % of control
same,survivor count,"T/C endpoint: median survival time, dose: 12.0 mg/kg/injection, schedule: Q01DX009 (ip), vehicle: saline + Tween-80 + alcohol, higher T/C = longer survival",0 of 10
same,survivor count,"T/C endpoint: median tumor weight (est.), dose: 6.0 mg/kg/injection, schedule: Q01DX009 (ip), vehicle: saline + Tween-80 + alcohol, higher T/C = larger tumour",4 of 10 on day 20
same,survivor count,"T/C endpoint: median tumor weight (est.), dose: 12.0 mg/kg/injection, schedule: Q01DX009 (ip), vehicle: saline + Tween-80 + alcohol, higher T/C = larger tumour",0 of 10 on day 20
